Measurements reported in PubChem BioAssay AID504808 (Drosophila RNAi Screening Center, 2011).

- Purpose: 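Fly genes required to hold E2F transcription in check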 (primary screen)
- Cells: Drosophila S2 cells
- Knock-down reagent: long dsRNA against Drosophila genes
- Detection: 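Dual luciferase plate measurements; E2F-specific signal taken as firefly over Renilla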
- Reading the numbers: E2F firefly: higher = more E2F reporter activity; Renilla normaliser: higher = more normaliser reporter signal
- Hit rule: 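Called active if the normalised E2F reporter went up by over 50%; the cutoff is arbitrary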
In all, the deposit lists about 21,000 reagents; below is an unselected part of those with a known target gene and a result. Of all reagents, 18 (0.084%) were called active. 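Raw counts without plate normalisation, one of two replicates; the ratio scores behind the calls were not deposited.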 The numbers tell different reagents against one gene apart. Names joined by + are all predicted targets of the reagent. Not given: the amount of reagent, the time to read-out.

After knock-down of CG7011 + Prp31 the results were E2F firefly, rep 1 = 76211; Renilla normaliser, rep 1 = 3284; inactive. CG32461 showed E2F firefly, rep 1 = 92386; Renilla normaliser, rep 1 = 3602; inactive. IntS2 showed E2F firefly, rep 1 = 1.79e5; Renilla normaliser, rep 1 = 5922; inactive. Depletion of CG34404 #1 resulted in: E2F firefly, rep 1 = 99449; Renilla normaliser, rep 1 = 5754; inactive. For CG34404 #2, the entry reads E2F firefly, rep 1 = 75696; Renilla normaliser, rep 1 = 3347; inactive. For wrm1 the deposit lists E2F firefly, rep 1 = 61383; Renilla normaliser, rep 1 = 3038; inactive.

CG12836 showed E2F firefly, rep 1 = 1.57e5; Renilla normaliser, rep 1 = 5299; inactive. For CG2909, the values are E2F firefly, rep 1 = 1.12e5; Renilla normaliser, rep 1 = 5649; inactive. EMC4 gave E2F firefly, rep 1 = 1.55e5; Renilla normaliser, rep 1 = 7840; inactive. CG14417 scored E2F firefly, rep 1 = 1.27e5; Renilla normaliser, rep 1 = 5929; inactive. Against ACXC the deposit lists E2F firefly, rep 1 = 94482; Renilla normaliser, rep 1 = 4458; inactive. For CG1824, the values are E2F firefly, rep 1 = 1.38e5; Renilla normaliser, rep 1 = 6008; inactive.

Ugt35D1 scored E2F firefly, rep 1 = 58543; Renilla normaliser, rep 1 = 3825; inactive. After knock-down of Nha2 #1 the results were E2F firefly, rep 1 = 1.18e5; Renilla normaliser, rep 1 = 6135; inactive. Nha2 #2 gave E2F firefly, rep 1 = 68204; Renilla normaliser, rep 1 = 3123; inactive. For Nha2 #3, the entry reads E2F firefly, rep 1 = 1.11e5; Renilla normaliser, rep 1 = 6352; inactive. Depletion of fz resulted in: E2F firefly, rep 1 = 1.79e5; Renilla normaliser, rep 1 = 9242; inactive.

Targets above whose target name begins with N or n:
Nha2 #1 | E2F firefly, rep 1 = 1.18e5; Renilla normaliser, rep 1 = 6135; activity call = inactive
Nha2 #2 | E2F firefly, rep 1 = 68204; Renilla normaliser, rep 1 = 3123; activity call = inactive
Nha2 #3 | E2F firefly, rep 1 = 1.11e5; Renilla normaliser, rep 1 = 6352; activity call = inactive

The list goes on:
Depletion of Tmep gave: E2F firefly, rep 1 = 67674; Renilla normaliser, rep 1 = 3749; inactive. Silencing of CG9581 resulted in: E2F firefly, rep 1 = 1.52e5; Renilla normaliser, rep 1 = 5523; inactive. Silencing of Mlp84B gave: E2F firefly, rep 1 = 1.37e5; Renilla normaliser, rep 1 = 7360; inactive. HLH54F scored E2F firefly, rep 1 = 1.49e5; Renilla normaliser, rep 1 = 5660; inactive. Knock-down of CG13689 gave: E2F firefly, rep 1 = 1.80e5; Renilla normaliser, rep 1 = 5958; inactive. Depletion of PCNA2 gave: E2F firefly, rep 1 = 1.06e5; Renilla normaliser, rep 1 = 4283; inactive.

ms(3)K81 gave E2F firefly, rep 1 = 1.17e5; Renilla normaliser, rep 1 = 6237; inactive. Depletion of CG3368 resulted in: E2F firefly, rep 1 = 1776; Renilla normaliser, rep 1 = 856; inactive. After knock-down of CG4042 the results were E2F firefly, rep 1 = 1.43e5; Renilla normaliser, rep 1 = 7252; inactive. Against Sbat, the values are E2F firefly, rep 1 = 1.39e5; Renilla normaliser, rep 1 = 6112; inactive. For Grl58a, the values are E2F firefly, rep 1 = 1.02e5; Renilla normaliser, rep 1 = 3557; inactive.
